In doi:10.1101/2020.01.28.924043:
Results are given in words; binding and its absence hold for the method and conditions named. Binding seen in cells or lysates may run through a third protein. Some binding calls cover weakened binding; strength is not graded here. Blank lines part the entries; values can stand above or below the molecule they belong to.

By UniProt entry, the sequences of proteins in these tests, tags left out.
UniProt Q07157: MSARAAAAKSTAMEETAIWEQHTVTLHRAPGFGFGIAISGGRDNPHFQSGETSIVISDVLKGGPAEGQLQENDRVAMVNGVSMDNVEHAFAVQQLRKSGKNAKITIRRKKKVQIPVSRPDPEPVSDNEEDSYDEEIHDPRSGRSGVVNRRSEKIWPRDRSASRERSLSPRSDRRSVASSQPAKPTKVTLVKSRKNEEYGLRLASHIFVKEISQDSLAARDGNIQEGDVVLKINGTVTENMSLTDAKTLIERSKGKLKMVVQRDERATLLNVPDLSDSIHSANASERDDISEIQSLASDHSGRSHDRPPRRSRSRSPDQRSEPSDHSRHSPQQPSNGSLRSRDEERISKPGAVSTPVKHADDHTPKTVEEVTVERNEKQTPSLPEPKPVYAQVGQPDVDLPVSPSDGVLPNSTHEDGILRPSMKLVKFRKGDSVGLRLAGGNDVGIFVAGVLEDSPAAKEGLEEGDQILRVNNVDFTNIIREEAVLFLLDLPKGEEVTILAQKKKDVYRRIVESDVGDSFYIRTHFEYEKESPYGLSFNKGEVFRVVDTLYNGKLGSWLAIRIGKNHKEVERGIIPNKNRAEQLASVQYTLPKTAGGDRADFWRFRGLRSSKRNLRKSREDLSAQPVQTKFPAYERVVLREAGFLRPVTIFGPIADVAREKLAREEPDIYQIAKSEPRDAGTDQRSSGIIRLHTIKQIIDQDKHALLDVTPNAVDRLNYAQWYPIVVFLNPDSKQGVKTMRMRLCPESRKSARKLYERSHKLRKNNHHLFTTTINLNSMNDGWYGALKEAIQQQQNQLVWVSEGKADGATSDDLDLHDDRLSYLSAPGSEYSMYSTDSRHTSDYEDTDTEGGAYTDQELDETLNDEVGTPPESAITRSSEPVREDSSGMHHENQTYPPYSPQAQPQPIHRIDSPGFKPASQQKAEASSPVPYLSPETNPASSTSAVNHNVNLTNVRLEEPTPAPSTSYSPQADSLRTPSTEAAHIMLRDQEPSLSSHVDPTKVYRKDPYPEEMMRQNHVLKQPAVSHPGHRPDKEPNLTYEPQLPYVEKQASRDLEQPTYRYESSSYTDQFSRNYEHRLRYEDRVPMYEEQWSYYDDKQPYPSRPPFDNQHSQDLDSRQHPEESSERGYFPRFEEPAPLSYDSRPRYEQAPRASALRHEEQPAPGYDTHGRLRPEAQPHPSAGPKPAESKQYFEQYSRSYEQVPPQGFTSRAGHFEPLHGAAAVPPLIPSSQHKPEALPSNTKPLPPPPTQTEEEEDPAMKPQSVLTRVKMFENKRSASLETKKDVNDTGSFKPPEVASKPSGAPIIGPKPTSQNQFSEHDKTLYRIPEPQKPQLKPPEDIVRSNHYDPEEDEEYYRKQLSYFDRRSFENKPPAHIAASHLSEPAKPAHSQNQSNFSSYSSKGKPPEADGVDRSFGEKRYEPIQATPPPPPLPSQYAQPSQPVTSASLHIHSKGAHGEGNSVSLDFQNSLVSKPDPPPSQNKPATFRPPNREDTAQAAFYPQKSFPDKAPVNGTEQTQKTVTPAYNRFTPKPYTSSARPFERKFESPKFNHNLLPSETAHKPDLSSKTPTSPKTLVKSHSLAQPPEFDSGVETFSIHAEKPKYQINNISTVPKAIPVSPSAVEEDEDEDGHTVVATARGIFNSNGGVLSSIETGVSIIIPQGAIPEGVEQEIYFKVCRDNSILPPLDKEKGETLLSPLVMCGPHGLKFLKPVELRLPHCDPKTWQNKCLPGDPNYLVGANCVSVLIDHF

Molecular target: zonula occludin-1 (ZO-1) (human (endogenous in HCMEC/D3)) (UniProt Q07157)
Experiment: co-IP

binding: binds
Molecule: spectrin-αII (from UniProt Q13813 1-2472)

binding: binds
B1: adducin-γ (ADD3) (protein, UniProt Q9UEY8 1-706)
chain: MSSDASQGVITTPPPPSMPHKERYFDRINENDPEYIRERNMSPDLRQDFNMMEQRKRVTQILQSPAFREDLECLIQEQMKKGHNPTGLLALQQIADYIMANSFSGFSSPPLSLGMVTPINDLPGADTSSYVKGEKLTRCKLASLYRLVDLFGWAHLANTYISVRISKEQDHIIIIPRGLSFSEATASNLVKVNIIGEVVDQGSTNLKIDHTGFSPHAAIYSTRPDVKCVIHIHTLATAAVSSMKCGILPISQESLLLGDVAYYDYQGSLEEQEERIQLQKVLGPSCKVLVLRNHGVVALGETLEEAFHYIFNVQLACEIQVQALAGAGGVDNLHVLDFQKYKAFTYTVAASGGGGVNMGSHQKWKVGEIEFEGLMRTLDNLGYRTGYAYRHPLIREKPRHKSDVEIPATVTAFSFEDDTVPLSPLKYMAQRQQREKTRWLNSPNTYMKVNVPEESRNGETSPRTKITWMKAEDSSKVSGGTPIKIEDPNQFVPLNTNPNEVLEKRNKIREQNRYDLKTAGPQSQLLAGIVVDKPPSTMQFEDDDHGPPAPPNPFSHLTEGELEEYKRTIERKQQGLEDAEQELLSDDASSVSQIQSQTQSPQNVPEKLEENHELFSKSFISMEVPVMVVNGKDDMHDVEDELAKRVSRLSTSTTIENIEITIKSPEKIEEVLSPEGSPSKSPSKKKKKFRTPSFLKKNKKKEKVEA
